# Experimental data as given in US9868750B2, “4,5-diarylimidazole derivatives as HDAC inhibitors” (CHARITÉ—UNIVERSITÄTSMEDIZIN BERLIN, priority 2014, dated 2018).
# System: HDAC active isolates from HeLa cytosolic extract
# Test: Fluorescence-based HDAC activity assay, HeLa cytosolic extract
structure (smiles),measurement,value
"O=C(CCCCCCC(=O)Nc1ccccc1)NO [SAHA, reference compound]",times more HDAC inhibiting in the cytosolic than in the nuclear fraction,2.5 times
